# Test results published in PubChem BioAssay AID485353 (National Center for Advancing Translational Sciences (NCATS), 2010).
# Where “and” joins values, the source holds several entries; their conditions need not be identical. Equal entries are not always repeated. The whole screen tested about 330,000 compounds, of which about 610 (0.18%) were called active. The inconclusive results got no clear call from the source; some entries with a clear call stand among them for comparison. The call rests on the fitted dose curve. Potencies beside an inconclusive call are fits to weak or partial responses and may not hold up. A structure can be active in one record and inactive in another.
# Experiment: qHTS of Yeast-based Assay for SARS-CoV PLP; further: nearly all actives have a fitted effect of over 55% in size
# Settings: S. cerevisiae expressing SARS-CoV PLpro; Potency: growth rescue; series mostly up to 32.9 µM
# Potency means the concentration at half of the fitted maximal effect.
row,SMILES,Potency
1,Cc1cc(C(C)(C)C)oc1C(=O)N(CC(=O)NC1CCCC1)Cc1ccccc1,"inconclusive: 10 µM [activator, single point]"
2,O=C(Nc1cc(C(F)(F)F)ccc1Cl)c1cccc(N2C(=O)CCC2=O)c1,"inconclusive: 20 µM [activator, single point]"
3,COc1ccccc1C(=O)OCC(=O)NC(=O)NC1CCCC1,inactive
4,CC(C)n1cnnc1SCC(=O)NC(=O)c1ccccc1,"inconclusive: 17.8 µM [activator, single point]"
5,O=C(c1ccccc1)c1cccc[n+]1[O-],"inconclusive: 20 µM [activator, single point]"
6,COc1ccc(OCc2cc(C(=O)NC3CCc4ccccc43)no2)c(Cl)c1 (centres undefined),"inconclusive: 20 µM [activator, single point]"
7,CCOC(=O)c1[nH]c(C)c(C(=O)OCC(=O)NC(=O)NC(C)(C)C)c1C,"inconclusive: 20 µM [activator, single point]"
8,CCOC(=O)N1CCN(S(=O)(=O)c2ccc3c4c(cccc24)C(=O)N3)CC1,"inconclusive: 0.316 µM [activator, full curve]"
9,COc1ccc(-c2cc(-c3ccc(OC)c(OC)c3)n[nH]2)c(O)c1,"inconclusive: 2.24 µM [activator, partial curve, poor fit]"
10,COc1ccc(CNC(=O)Cn2nc([N+](=O)[O-])c(Br)c2C)cc1,"inconclusive: 20 µM [activator, single point]"
11,CC(NC(=O)c1ccc(CS(C)(=O)=O)cc1)c1ccc(-n2ccnc2)cc1 (centres undefined),"inconclusive: 17.8 µM [activator, single point]"
12,Cc1ccc(S(=O)(=O)N(C)CCCC(=O)N2CCN(c3ccccn3)CC2)cc1,"inconclusive: 20 µM [activator, single point]"
13,S=c1[nH]nc(-c2ccncc2)n1/N=C/c1ccccc1,"inconclusive: 3.98 µM [activator, single point]"
14,COc1cccc(-c2ccc3ncnc(NCc4cc(C)cs4)c3c2)c1,inactive and active: 6.31 µM
15,CCN(CC)S(=O)(=O)c1cc(C(=O)OCC(=O)Nc2c(F)cccc2F)ccc1F,"inconclusive: 20 µM [activator, single point]"
16,O=C(NCc1cc(C(F)(F)F)ccc1Cl)c1cccc2c1C(=O)c1ccc(-c3ccc(OC(F)(F)F)cc3)cc1S2(=O)=O,inactive
17,O=C(N/N=C/c1sc2ccccc2c1O)c1ccccc1,active: 3.98 µM
18,COc1ccccc1CN1CCC(CNS(=O)(=O)c2cc(-c3cc(C)no3)ccc2C)CC1,inactive
19,O=C(c1cccc(F)c1)N1CCC(N2CCOCC2)CC1,"inconclusive: 15.8 µM [activator, partial curve]"
20,COc1ccc(Br)cc1CN1CCCC(C(=O)N2CCCCCC2)C1 (centres undefined),"inconclusive: 2.82 µM [activator, single point]"
21,COc1cccc(-c2nc(CS(=O)(=O)CC(=O)NCCc3ccccc3)c(C)o2)c1,"inconclusive: 22.4 µM [activator, partial curve]"
22,Cc1cc(=O)[nH]c(N/N=C/c2ccc(C)o2)n1,"inconclusive: 20 µM [activator, partial curve]"
23,Cc1noc(C)c1S(=O)(=O)N1CCC(C(=O)N2CCN(Cc3ccc4c(c3)OCO4)CC2)CC1,inactive

row,SMILES,Potency
1,COc1ccccc1/C=C/C(=O)NC(=S)NC(C)C,"inconclusive: 14.1 µM [activator, single point]"
2,COc1cc(OC)cc(-c2nnc(SCC(=O)N3CCOCC3)o2)c1,"inconclusive: 3.16 µM [activator, partial curve]"
3,Cc1c([N+](=O)[O-])c([N+](=O)[O-])nn1CC(=O)NCCc1ccccc1,"inconclusive: 20 µM [activator, single point]"
4,NC(=O)NC(Cc1ccccc1)C(=O)NCC1(N2CCCCC2)CCCCC1 (centres undefined),"inconclusive: 4.47 µM [activator, single point]"
5,Cc1ccnc(SCC(=O)NC2CC2)n1,"inconclusive: 0.355 µM [activator, full curve, poor fit]"
6,COc1cc(NC(=O)c2ccc(Br)o2)ccc1NC(=O)c1ccccc1Cl,inactive
7,COc1cccc(C(=O)Nc2nc(-c3ccc(S(=O)(=O)N4CCOCC4)cc3)cs2)c1,"inconclusive: 12.6 µM [activator, single point]"
8,C=CCNC(=S)N/N=C(\C)c1cccnc1,inactive
9,CCc1[nH]nc(C(=O)N2CCCC(Nc3ccc(C(C)C)cc3)C2)c1C (centres undefined),"inconclusive: 14.1 µM [activator, single point]"
10,CC(C)OC(=O)Nc1ccc(Oc2c(F)c(F)c(F)c(F)c2F)cc1,"inconclusive: 3.98 µM [activator, single point]"
11,O=C(N/N=C/c1c(O)n(Cc2ccco2)c(=O)[nH]c1=O)c1ccccc1O,"inconclusive: 22.4 µM [activator, single point]"
12,Cc1cccc(C(=O)NCC(=O)NCCCSc2ccccc2)c1,inactive
13,COc1cccc(CN(C)C(=O)c2cccc(OCc3ccccc3)c2)c1,inactive
14,COCCNC(=S)NC1CC2CCCC(C1)N2Cc1cccs1 (centres undefined),inactive
15,CCOc1ccccc1CN1CCNC(=O)C1CC(=O)NCc1nc(C)cs1 (centres undefined),"inconclusive: 3.98 µM [activator, single point]"
16,COc1cccc(C(C)NC(=O)Cc2cccs2)c1 (centres undefined),"inconclusive: 22.4 µM [activator, partial curve, poor fit]"
17,N#Cc1sc(NCc2ccccn2)nc1Cl,inactive
18,Nc1n[nH]c(-c2ccc([N+](=O)[O-])cc2[N+](=O)[O-])n1,inactive
19,CCOC(=O)c1sc(NC(=O)c2ccoc2C)c(C(N)=O)c1C,"inconclusive: 0.316 µM [activator, full curve]"
20,Cc1cc(SCC(=O)Nc2c(C)n(C)n(-c3ccccc3)c2=O)nc2ccccc12,"inconclusive: 3.98 µM [activator, single point]"
21,CC1=CC(C)(C)NC(=S)N1c1ccc2ccccc2c1,"inconclusive: 1.78 µM [activator, full curve, poor fit]"
22,COc1cccc(NC(=O)Cn2cc(C(=O)c3ccc(C)cc3)c(=O)c3cc(OC)ccc32)c1,inactive
23,O=C(c1ccc(Cl)c(S(=O)(=O)NCc2ccco2)c1)N1CCN(c2ccccc2F)CC1,inactive

row,SMILES,Potency
1,COCCNC(=O)c1ccc(CS(=O)(=O)c2ccc(C)cc2)o1,"inconclusive: 20 µM [activator, single point]"
2,COc1ccc(N(CC(=O)NC2CCCCC2)C(=O)CNC(=O)c2ccco2)cc1OC,inactive
3,CC(=O)N1CCN(CC(=O)Nc2ccccc2Sc2ccc(Cl)cc2)CC1,"inconclusive: 20 µM [activator, single point]"
4,COc1c(C)cc(C(=O)C2CCCN(C(=O)c3cc(C)on3)C2)cc1C (centres undefined),"inconclusive: 20 µM [activator, single point]"
5,C[N+](C)(C)CCCN1C(=O)CCCC1=O,"inconclusive: 0.316 µM [activator, full curve, poor fit]"
6,O=C(N/N=C/c1c(O)n(Cc2ccccc2)c(=O)[nH]c1=O)c1ccccc1O,active: 10 µM
7,O=C(COC(=O)C1CCN(C(=O)c2ccc(Cl)cc2)CC1)Nc1ccccc1F,inactive
8,CC1CCc2c(sc3ncn4c(SCC(=O)NCc5ccco5)nnc4c23)C1 (centres undefined),"inconclusive: 20 µM [activator, single point]"
9,C=CCNC(=S)N/N=C(\C)c1cccc(OC)c1,"inconclusive: 3.98 µM [activator, single point]"
10,COC(=O)Cn1c(=NC(=O)CCS(=O)(=O)c2ccccc2)sc2c(OC)ccc(OC)c21,"inconclusive: 10 µM [activator, single point]"
11,CC(=O)N1CC(=O)N=C1SCC(=O)Nc1nc(-c2ccccc2)c(-c2ccccc2)s1,"inconclusive: 14.1 µM [activator, partial curve, poor fit]"
12,COc1ccc(CCNC(=O)CCNC(=O)c2ccc(Br)cc2)cc1OC,"inconclusive: 4.47 µM [activator, single point]"
13,O=C(CCN1C(=O)c2ccccc2C1=O)OCN1C(=O)c2ccccc2C1=O,"inconclusive: 10 µM [activator, partial curve]"
14,CCNc1nc(C)cc(COC)c1C#N,"inconclusive: 3.98 µM [activator, single point]"
15,O=C1Nc2ccccc2N=C(c2ccccc2)C1N1CCOCC1 (centres undefined),inactive
16,COc1ccc(S(=O)(=O)NCC(c2cccnc2)N2CCN(C)CC2)cc1OC (centres undefined),"inconclusive: 3.98 µM [activator, single point]"
17,Cn1c2cc(C#N)sc2c2cnn(Cc3ccc(F)cc3)c(=O)c21,active: 5.62 µM
18,O=C(CCC(=O)c1cccs1)NCC(=O)Nc1ccc(F)c(F)c1F,"inconclusive: 6.31 µM [activator, partial curve]"
19,Cc1cccc(OCCNc2cc(N3CCN(CCO)CC3)ccc2[N+](=O)[O-])c1,active: 12.6 µM
20,CCOc1ccc(NC(=O)CCCOc2cc(=O)n(C)c3ccccc23)cc1,"inconclusive: 20 µM [activator, single point]"
21,Cc1ccc(NC(=O)c2cccc3c2C(=O)N(C2CCCCC2)C3)cc1,"inconclusive: 15.8 µM [activator, single point]"
22,O=C(Cn1cc2c(n1)CCCCC2)NCCCN1CCOCC1,"inconclusive: 11.2 µM [activator, single point]"
23,O=C(Nc1ccccc1Cl)c1ccc([N+](=O)[O-])o1,"inconclusive: 4.47 µM [activator, single point]"

# Filtered by structure: the entries above containing a thiophene ring, fused or not
row,SMILES,Potency
14,COc1cccc(-c2ccc3ncnc(NCc4cc(C)cs4)c3c2)c1,inactive and active: 6.31 µM
17,O=C(N/N=C/c1sc2ccccc2c1O)c1ccccc1,active: 3.98 µM
14,COCCNC(=S)NC1CC2CCCC(C1)N2Cc1cccs1 (centres undefined),inactive
16,COc1cccc(C(C)NC(=O)Cc2cccs2)c1 (centres undefined),"inconclusive: 22.4 µM [activator, partial curve, poor fit]"
19,CCOC(=O)c1sc(NC(=O)c2ccoc2C)c(C(N)=O)c1C,"inconclusive: 0.316 µM [activator, full curve]"
8,CC1CCc2c(sc3ncn4c(SCC(=O)NCc5ccco5)nnc4c23)C1 (centres undefined),"inconclusive: 20 µM [activator, single point]"
17,Cn1c2cc(C#N)sc2c2cnn(Cc3ccc(F)cc3)c(=O)c21,active: 5.62 µM
18,O=C(CCC(=O)c1cccs1)NCC(=O)Nc1ccc(F)c(F)c1F,"inconclusive: 6.31 µM [activator, partial curve]"

# 3 compounds out of the list, ordered by molecular weight, ascending:
row,SMILES,Potency
5,O=C(c1ccccc1)c1cccc[n+]1[O-],"inconclusive: 20 µM [activator, single point]"
1,COc1ccccc1/C=C/C(=O)NC(=S)NC(C)C,"inconclusive: 14.1 µM [activator, single point]"
7,COc1cccc(C(=O)Nc2nc(-c3ccc(S(=O)(=O)N4CCOCC4)cc3)cs2)c1,"inconclusive: 12.6 µM [activator, single point]"
